Results on two molecules are retold here after publication PMC6191456 (Scientific Reports, 2018).

For assay [1], the target named is T1, complex of ClpA with TrfA (E. coli | not stated) (UniProt P0ABH9).
T1 sequence 1: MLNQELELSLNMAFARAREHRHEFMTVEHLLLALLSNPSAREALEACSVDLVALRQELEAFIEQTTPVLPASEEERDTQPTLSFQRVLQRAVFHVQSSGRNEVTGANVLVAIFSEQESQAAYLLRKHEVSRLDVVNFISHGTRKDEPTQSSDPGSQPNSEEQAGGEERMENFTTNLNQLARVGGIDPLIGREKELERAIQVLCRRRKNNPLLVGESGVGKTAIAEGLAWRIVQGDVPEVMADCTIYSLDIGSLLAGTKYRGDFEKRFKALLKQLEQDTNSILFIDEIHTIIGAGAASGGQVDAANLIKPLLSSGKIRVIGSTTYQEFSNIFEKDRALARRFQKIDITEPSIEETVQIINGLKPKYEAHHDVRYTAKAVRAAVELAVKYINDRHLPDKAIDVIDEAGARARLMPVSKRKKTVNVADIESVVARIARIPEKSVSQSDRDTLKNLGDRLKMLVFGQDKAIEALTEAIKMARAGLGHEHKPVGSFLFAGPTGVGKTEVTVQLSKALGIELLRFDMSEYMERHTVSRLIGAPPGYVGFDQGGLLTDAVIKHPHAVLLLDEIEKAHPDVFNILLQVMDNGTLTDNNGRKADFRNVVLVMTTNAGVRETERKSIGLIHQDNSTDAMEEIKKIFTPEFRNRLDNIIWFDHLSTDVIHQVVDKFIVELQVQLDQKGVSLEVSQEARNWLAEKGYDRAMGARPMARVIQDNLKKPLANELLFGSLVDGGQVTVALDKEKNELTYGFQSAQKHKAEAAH
T1 sequence 2: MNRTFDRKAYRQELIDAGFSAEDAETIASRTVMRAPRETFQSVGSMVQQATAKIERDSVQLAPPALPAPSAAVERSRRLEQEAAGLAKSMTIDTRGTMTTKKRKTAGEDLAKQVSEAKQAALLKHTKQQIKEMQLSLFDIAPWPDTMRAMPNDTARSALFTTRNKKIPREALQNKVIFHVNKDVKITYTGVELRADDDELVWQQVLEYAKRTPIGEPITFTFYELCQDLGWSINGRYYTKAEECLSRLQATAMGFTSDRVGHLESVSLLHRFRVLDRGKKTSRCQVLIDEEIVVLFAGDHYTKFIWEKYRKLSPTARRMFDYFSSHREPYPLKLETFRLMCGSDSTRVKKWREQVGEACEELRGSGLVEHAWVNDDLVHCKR
Description: SPR; ParE tested on the complex of ClpA with TrfA (Supplementary Fig. S7); both purified. In general terms: SPR reads the build-up and loss of mass on a sensor chip optically.

In assay [2] the target is T2, ClpA, the ATPase unit of ClpAP protease (E. coli, UniProt P0ABH9 1-758).
T2 construct: ClpA, ATP-dependent unfoldase subunit of the ClpAP protease, E. coli; also called ClpA ATPase; source: purified by a published protocol [55]
T2 sequence (looked up): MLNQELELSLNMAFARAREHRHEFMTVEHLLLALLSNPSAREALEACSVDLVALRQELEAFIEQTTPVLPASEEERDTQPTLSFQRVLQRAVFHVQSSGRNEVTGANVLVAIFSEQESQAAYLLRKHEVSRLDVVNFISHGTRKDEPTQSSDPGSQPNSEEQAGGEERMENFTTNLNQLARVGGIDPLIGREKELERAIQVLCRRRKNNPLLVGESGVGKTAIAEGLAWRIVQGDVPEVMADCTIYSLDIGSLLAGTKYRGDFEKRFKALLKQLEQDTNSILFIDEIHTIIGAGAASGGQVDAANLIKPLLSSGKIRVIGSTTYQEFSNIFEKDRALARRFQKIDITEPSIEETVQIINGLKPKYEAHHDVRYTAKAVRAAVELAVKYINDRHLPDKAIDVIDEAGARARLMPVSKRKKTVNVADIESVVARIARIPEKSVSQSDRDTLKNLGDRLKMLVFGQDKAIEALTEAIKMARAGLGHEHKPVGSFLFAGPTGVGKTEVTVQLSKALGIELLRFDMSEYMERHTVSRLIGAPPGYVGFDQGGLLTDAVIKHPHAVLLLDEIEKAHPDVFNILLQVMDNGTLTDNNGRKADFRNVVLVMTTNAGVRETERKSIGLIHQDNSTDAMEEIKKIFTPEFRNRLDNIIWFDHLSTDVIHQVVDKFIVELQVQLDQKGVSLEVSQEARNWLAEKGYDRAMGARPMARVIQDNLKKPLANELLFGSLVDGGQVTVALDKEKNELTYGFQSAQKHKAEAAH
Described as above.

Results are given in words; binding and its absence hold for the method and conditions named. Some entries that bind do so weakly or less than the wild type.

B1: ParE toxin of the parDE system from the broad host range plasmid RK2 (natural protein)
chain: MTAYILTAEAEADLRGIIRYTRREWGAAQVRRYIAKLEQGIARLAAGEGPFKDMSELFPALRMARCEHHYVFCLPRAGEPALVVAILHERMDLMTRLADRLKG
notes: also called GST-ParE
Regarding B1, the binding result in assay [1] is “no binding”.

B2: TrfA (protein, UniProt P07676 1-382)
chain: MNRTFDRKAYRQELIDAGFSAEDAETIASRTVMRAPRETFQSVGSMVQQATAKIERDSVQLAPPALPAPSAAVERSRRLEQEAAGLAKSMTIDTRGTMTTKKRKTAGEDLAKQVSEAKQAALLKHTKQQIKEMQLSLFDIAPWPDTMRAMPNDTARSALFTTRNKKIPREALQNKVIFHVNKDVKITYTGVELRADDDELVWQQVLEYAKRTPIGEPITFTFYELCQDLGWSINGRYYTKAEECLSRLQATAMGFTSDRVGHLESVSLLHRFRVLDRGKKTSRCQVLIDEEIVVLFAGDHYTKFIWEKYRKLSPTARRMFDYFSSHREPYPLKLETFRLMCGSDSTRVKKWREQVGEACEELRGSGLVEHAWVNDDLVHCKR
B2: the binding result in assay [2] is “binds”.
